Results: patent publication US20100048671A1, “INHIBITION OF THE 44 KILODALTON ISOFORM OF PIM-1 KINASE RESTORES APOPTOSIS INDUCED BY CHEMOTHERAPEUTIC DRUGS IN CANCER CELLS” (priority 2005, published 2010)
No constants are given. Whether binding was seen depends on the method and setting. Binding seen in cells or lysates may run through a third protein. Some results given as binding are weak or reduced against the parent protein; the word gives no strength. Tags and fused reporters may be left off the sequences shown.

Target: T1, Myc-tagged BCRP, Q9UNQ0
T1 chain: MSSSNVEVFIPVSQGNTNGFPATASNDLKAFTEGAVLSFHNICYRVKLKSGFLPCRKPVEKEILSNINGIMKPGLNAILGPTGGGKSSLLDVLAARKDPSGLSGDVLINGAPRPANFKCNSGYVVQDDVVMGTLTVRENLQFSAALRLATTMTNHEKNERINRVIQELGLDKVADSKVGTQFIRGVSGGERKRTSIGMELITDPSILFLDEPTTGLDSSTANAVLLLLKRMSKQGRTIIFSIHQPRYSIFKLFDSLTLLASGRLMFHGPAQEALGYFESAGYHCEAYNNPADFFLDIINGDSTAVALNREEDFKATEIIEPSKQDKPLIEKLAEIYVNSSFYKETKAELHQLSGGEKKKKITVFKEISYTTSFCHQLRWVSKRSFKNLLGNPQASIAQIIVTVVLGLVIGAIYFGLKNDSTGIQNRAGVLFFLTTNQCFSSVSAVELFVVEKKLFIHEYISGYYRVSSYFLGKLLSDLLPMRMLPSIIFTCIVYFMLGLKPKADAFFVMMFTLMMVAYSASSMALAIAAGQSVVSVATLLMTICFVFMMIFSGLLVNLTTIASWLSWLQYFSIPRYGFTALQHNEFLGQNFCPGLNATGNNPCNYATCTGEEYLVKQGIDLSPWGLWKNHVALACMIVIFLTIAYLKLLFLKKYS
Assay: co-IP in transfected 293T cells (IP anti-HA, blot anti-Myc; legend of FIG. 18)
Settings: remark: other sources report otherwise

binding: binds
B1: HA-tagged BCRP (breast cancer resistance protein), Q9UNQ0 1-655 (protein, UniProt Q9UNQ0 1-655, looked up, not shown: small tags and cut ends)
chain: T1 chain
